Reference: patent publication US12195506B2, “Immunotherapy with A*01 restricted peptides and combination of peptides against cancers and related methods” (Immatics Biotechnologies GmbH, priority 2018, dated 2025)

Test system: HLA molecules of primary tumors and normal tissue samples
Test: Identification and relative quantitation of HLA ligands by LC-MS (peptide presentation on tumor versus normal tissue)
Set-up: species or system human
Details: cancer entities on which the peptide was found presented (HLA ligands, LC-MS); abbreviations as in title of Table 8

Row | Substance | Peptide Presentation on cancer entities
1 | 2 (VDPIGHLY; listed as Homo sapiens) [compound 2] | HCC
2 | 4 (RIEAIRAEY; listed as Homo sapiens) [compound 4] | MEL
3 | 6 (ARDPITFSF; listed as Homo sapiens) [compound 6] | HNSCC, NSCLCadeno
4 | 7 (ASDDVRIEVGLY; listed as Homo sapiens) [compound 7] | AML, NSCLCother
5 | 8 (TSRAANIPGY; listed as Homo sapiens) [compound 8] | MEL
6 | 10 (VSERTGISY; listed as Homo sapiens) [compound 10] | MEL
7 | 11 (ASDHWRGRY; listed as Homo sapiens) [compound 11] | PRCA
8 | 12 (YTDFVGEGLY; listed as Homo sapiens) [compound 12] | BRCA, PRCA
9 | 13 (NTHTGTRPY; listed as Homo sapiens) [compound 13] | NSCLCsquam
10 | 14 (QSEKEPGQQY; listed as Homo sapiens) [compound 14] | HCC
11 | 15 (YLDSSKPAVY; listed as Homo sapiens) [compound 15] | BRCA, UEC
12 | 16 (NSDISIPEY; listed as Homo sapiens) [compound 16] | BRCA, GC, NHL, OC, SCLC, UEC
13 | 17 (ASWAVLCYY; listed as Homo sapiens) [compound 17] | NSCLCsquam
14 | 18 (RSDPVSLRY; listed as Homo sapiens) [compound 18] | GBM
15 | 19 (LTEGHSGNY; listed as Homo sapiens) [compound 19] | NHL
16 | 20 (LSAQHRMLA; listed as Homo sapiens) [compound 20] | GBM
17 | 23 (DTDPLKAAGL; listed as Homo sapiens) [compound 23] | GBC, GBM, GC, MEL, NSCLCadeno, NSCLCsquam, OC, OSCAR, UEC
18 | 24 (NLDHYTNAY; listed as Homo sapiens) [compound 24] | UEC
19 | 25 (AMMQEAQLAY; listed as Homo sapiens) [compound 25] | NSCLCadeno, NSCLCother, SCLC, UEC
20 | 26 (ASDDFRSKY; listed as Homo sapiens) [compound 26] | OSCAR
21 | 29 (TLEDLDNLYNY; listed as Homo sapiens) [compound 29] | NSCLCadeno
22 | 30 (VTTDKPRAY; listed as Homo sapiens) [compound 30] | HNSCC
23 | 31 (VSDHLQAGMLGQY; listed as Homo sapiens) [compound 31] | HNSCC, OSCAR
24 | 32 (GTDKQNSTLRY; listed as Homo sapiens) [compound 32] | MEL, NSCLCadeno

Row | Substance | Peptide Presentation on cancer entities
25 | 33 (SMDPVTGYQY; listed as Homo sapiens) [compound 33] | MEL
26 | 34 (SSWSAGENDSY; listed as Homo sapiens) [compound 34] | BRCA, CCC, GBC, GBM, GC, HNSCC, MEL, NSCLCsquam, OC, OSCAR, PACA, UEC
27 | 35 (SWSAGENDSYS; listed as Homo sapiens) [compound 35] | BRCA, NSCLCadeno, NSCLCsquam, UEC
28 | 36 (MTSTEQSLY; listed as Homo sapiens) [compound 36] | HCC, MEL
29 | 37 (MTSTEQSLYY; listed as Homo sapiens) [compound 37] | MEL
30 | 40 (TSDQLGYSY; listed as Homo sapiens) [compound 40] | MEL
31 | 43 (ETEPERHLGSY; listed as Homo sapiens) [compound 43] | PRCA
32 | 45 (NLDPNKIY; listed as Homo sapiens) [compound 45] | MEL, OSCAR
33 | 46 (RSDPGGGGLAYAAY; listed as Homo sapiens) [compound 46] | AML, BRCA
34 | 47 (WSDGVPLLY; listed as Homo sapiens) [compound 47] | GBM, MEL
35 | 50 (ITDEDEDMLSY; listed as Homo sapiens) [compound 50] | HCC
36 | 54 (EVDIHTIHY; listed as Homo sapiens) [compound 54] | GBC, HNSCC, OSCAR
37 | 55 (ATEGDVLNY; listed as Homo sapiens) [compound 55] | MEL, NHL, NSCLCsquam
38 | 56 (VTEYAEEIYQY; listed as Homo sapiens) [compound 56] | AML
39 | 58 (YLENSASWY; listed as Homo sapiens) [compound 58] | UEC
40 | 59 (FTDSQGNDIK; listed as Homo sapiens) [compound 59] | MEL
41 | 60 (MTEKFLFLY; listed as Homo sapiens) [compound 60] | HNSCC, OSCAR
42 | 61 (SSDIVALGGFLY; listed as Homo sapiens) [compound 61] | AML, BRCA, NSCLCsquam
43 | 62 (VSELVTTGHY; listed as Homo sapiens) [compound 62] | AML, CRC, GBC, GBM, NSCLCadeno, NSCLCsquam, OC, OSCAR
44 | 65 (SSDFDPLVY; listed as Homo sapiens) [compound 65] | BRCA, GBC, GBM, GC, HCC, MEL, NSCLCadeno, NSCLCsquam, UEC
45 | 67 (NVDQNQNSY; listed as Homo sapiens) [compound 67] | GBM, HNSCC, MEL, NSCLCadeno
46 | 70 (YTELVEEKY; listed as Homo sapiens) [compound 70] | BRCA, CCC, CRC, GC, HCC, HNSCC, MEL, NHL, NSCLCadeno, NSCLCother, NSCLCsquam, OC, OSCAR, PACA, PRCA, RCC, UEC
47 | 71 (LTDSTTRTTY; listed as Homo sapiens) [compound 71] | CRC, GC, NSCLCadeno, NSCLCsquam, PACA
48 | 72 (VTDSTTKIAY; listed as Homo sapiens) [compound 72] | GC, NSCLCsquam, PACA, SCLC

Row | Substance | Peptide Presentation on cancer entities
49 | 74 (EMEQQSQEY; listed as Homo sapiens) [compound 74] | HNSCC, OSCAR
50 | 76 (QTDVERIKDTY; listed as Homo sapiens) [compound 76] | CCC, CRC, GBC, GC, HCC, HNSCC, NHL, NSCLCadeno, NSCLCother, NSCLCsquam, OC, OSCAR, PACA, PRCA, UEC
51 | 77 (FTSDTGLEY; listed as Homo sapiens) [compound 77] | AML, NSCLCadeno
52 | 78 (QLDSAVKNLY; listed as Homo sapiens) [compound 78] | BRCA, CRC, GBC, GC, HCC, HNSCC, MEL, NHL, NSCLCadeno, NSCLCsquam, OSCAR, PACA; SCLC, UBC, UEC
53 | 79 (ASDLEPRELLSY; listed as Homo sapiens) [compound 79] | BRCA
54 | 80 (ELCPLPGTSAY; listed as Homo sapiens) [compound 80] | GBC, GBM, GC, HCC, HNSCC
55 | 81 (YSDLHTPGRY; listed as Homo sapiens) [compound 81] | AML, SCLC
56 | 82 (LTEKSHIRY; listed as Homo sapiens) [compound 82] | BRCA, GBM, MEL, NSCLCadeno, NSCLCsquam
57 | 83 (DTEFHGGLHY; listed as Homo sapiens) [compound 83] | BRCA, GC, OSCAR, PACA
58 | 85 (SSDNYEHWLY; listed as Homo sapiens) [compound 85] | BRCA, MEL, NSCLCadeno
59 | 87 (AFDDIATYF; listed as Homo sapiens) [compound 87] | SCLC
60 | 88 (KEVDPAGHSYI; listed as Homo sapiens) [compound 88] | NHL
61 | 89 (EVYDGREHSAY; listed as Homo sapiens) [compound 89] | MEL, OSCAR
62 | 90 (YEDHFPLLF; listed as Homo sapiens) [compound 90] | MEL, OSCAR
63 | 92 (TTDDTTAMASAS; listed as Homo sapiens) [compound 92] | GBC, MEL, NSCLCsquam
64 | 93 (HLKILSPIY; listed as Homo sapiens) [compound 93] | BRCA
65 | 96 (TATLLIVRY; listed as Homo sapiens) [compound 96] | AML
66 | 98 (NFSDLVFTY; listed as Homo sapiens) [compound 98] | BRCA
67 | 99 (AADSNPSEL; listed as Homo sapiens) [compound 99] | PRCA
68 | 101 (SITDVDFIY; listed as Homo sapiens) [compound 101] | UEC
69 | 102 (STIRGELFF; listed as Homo sapiens) [compound 102] | BRCA
70 | 103 (ITDTLIHLM; listed as Homo sapiens) [compound 103] | BRCA
